Laboratory results from PMC8755542.

Chains of the proteins cited; added tags and fusions are not shown. A change or cut given only in a name is not applied to a line headed by its entry. Chains listed by the source or under a name are the forms on record and can include a tag or linker.
UniProt Q06609, whole entry: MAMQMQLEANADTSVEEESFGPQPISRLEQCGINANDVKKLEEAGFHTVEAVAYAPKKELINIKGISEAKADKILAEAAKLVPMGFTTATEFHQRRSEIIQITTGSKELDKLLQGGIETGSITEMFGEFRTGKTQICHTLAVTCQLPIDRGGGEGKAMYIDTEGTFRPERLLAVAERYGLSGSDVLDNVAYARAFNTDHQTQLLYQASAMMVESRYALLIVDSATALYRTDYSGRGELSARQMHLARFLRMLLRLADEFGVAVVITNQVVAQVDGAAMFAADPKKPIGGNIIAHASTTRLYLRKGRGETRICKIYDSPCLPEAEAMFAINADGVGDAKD
RPA-mRFP1 (human), one chain, as listed by the source, chain 2 of 3: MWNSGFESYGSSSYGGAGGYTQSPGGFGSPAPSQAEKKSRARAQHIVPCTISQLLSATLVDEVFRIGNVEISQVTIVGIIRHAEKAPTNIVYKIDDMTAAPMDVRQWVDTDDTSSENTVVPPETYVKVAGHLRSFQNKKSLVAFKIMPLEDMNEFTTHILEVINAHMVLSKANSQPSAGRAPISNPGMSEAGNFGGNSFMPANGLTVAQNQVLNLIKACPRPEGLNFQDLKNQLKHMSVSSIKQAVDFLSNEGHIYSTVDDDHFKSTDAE
RPA-mRFP1 (human), one chain, as listed by the source, chain 3 of 3: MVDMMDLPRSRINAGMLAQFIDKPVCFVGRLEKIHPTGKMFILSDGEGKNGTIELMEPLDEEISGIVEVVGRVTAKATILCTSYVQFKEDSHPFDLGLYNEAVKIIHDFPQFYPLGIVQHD
RPA-mRFP1 (human), one chain, as listed by the source, chain 1 of 3: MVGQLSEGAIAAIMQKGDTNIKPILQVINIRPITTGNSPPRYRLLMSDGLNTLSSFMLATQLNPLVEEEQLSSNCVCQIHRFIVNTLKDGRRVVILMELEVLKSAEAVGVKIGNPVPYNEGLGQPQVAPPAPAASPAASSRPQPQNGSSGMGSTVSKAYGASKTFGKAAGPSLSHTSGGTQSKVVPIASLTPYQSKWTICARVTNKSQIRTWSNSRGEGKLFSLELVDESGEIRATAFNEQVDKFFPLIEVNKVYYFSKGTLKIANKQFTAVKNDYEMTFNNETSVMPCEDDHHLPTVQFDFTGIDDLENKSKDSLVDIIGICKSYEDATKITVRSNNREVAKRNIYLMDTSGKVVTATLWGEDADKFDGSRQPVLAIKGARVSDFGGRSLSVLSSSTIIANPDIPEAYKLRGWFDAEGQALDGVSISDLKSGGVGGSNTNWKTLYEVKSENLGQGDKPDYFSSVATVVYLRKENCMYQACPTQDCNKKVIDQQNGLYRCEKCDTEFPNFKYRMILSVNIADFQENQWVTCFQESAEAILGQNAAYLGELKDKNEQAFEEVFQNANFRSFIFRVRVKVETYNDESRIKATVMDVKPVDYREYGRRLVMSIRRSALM

How the values were obtained:
[1] = molecular target: T1, HELQ (human) (UniProt Q8TDG4); assay: EMSA; details: 2 mM ATP, 2 mM Mg2+, EMSA: 25 mM Tris-HCl pH 8.0, 2 mM ATP, 2 mM MgCl2, 1 mM DTT, 50 mM NaCl, 0.1 mg/ml BSA, 25 nM DNA, 10 min 37 C (20 min for RAD51 +/- HELQ), recombinant protein, residues 1-1101
T1 sequence (looked up): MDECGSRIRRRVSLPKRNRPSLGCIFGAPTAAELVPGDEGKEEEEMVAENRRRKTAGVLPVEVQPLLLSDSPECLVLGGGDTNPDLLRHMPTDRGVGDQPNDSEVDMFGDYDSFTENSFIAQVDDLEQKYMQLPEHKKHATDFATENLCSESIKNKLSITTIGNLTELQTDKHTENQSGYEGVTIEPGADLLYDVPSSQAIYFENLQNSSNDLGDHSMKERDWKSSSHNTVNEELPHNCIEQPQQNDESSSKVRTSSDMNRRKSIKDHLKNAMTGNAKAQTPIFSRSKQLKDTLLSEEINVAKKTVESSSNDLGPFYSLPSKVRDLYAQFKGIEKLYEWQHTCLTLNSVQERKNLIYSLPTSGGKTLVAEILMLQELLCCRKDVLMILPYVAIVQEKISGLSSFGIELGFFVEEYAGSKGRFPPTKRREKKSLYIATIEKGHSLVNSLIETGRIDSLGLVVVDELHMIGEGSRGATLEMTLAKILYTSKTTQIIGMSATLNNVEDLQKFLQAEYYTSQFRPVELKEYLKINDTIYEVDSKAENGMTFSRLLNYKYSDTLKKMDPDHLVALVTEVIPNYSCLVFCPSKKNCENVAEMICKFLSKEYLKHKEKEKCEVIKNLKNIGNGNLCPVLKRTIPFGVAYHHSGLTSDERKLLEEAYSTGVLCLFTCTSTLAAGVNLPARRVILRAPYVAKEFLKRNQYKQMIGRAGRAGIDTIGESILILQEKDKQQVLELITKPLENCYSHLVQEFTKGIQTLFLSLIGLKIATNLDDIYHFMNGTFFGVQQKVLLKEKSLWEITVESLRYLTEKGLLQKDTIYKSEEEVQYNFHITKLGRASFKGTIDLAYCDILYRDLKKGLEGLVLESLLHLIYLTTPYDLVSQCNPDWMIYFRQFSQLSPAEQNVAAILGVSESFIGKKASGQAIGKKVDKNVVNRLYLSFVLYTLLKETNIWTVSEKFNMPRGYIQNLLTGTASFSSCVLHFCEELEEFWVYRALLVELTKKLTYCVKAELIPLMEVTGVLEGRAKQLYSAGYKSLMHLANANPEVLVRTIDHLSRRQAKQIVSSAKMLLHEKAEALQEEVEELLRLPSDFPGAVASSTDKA

[2] = molecular target: RAD51 (human) (UniProt Q06609); assay: EMSA; details: EMSA: 25 mM Tris-HCl pH 8.0, 2 mM ATP, 2 mM MgCl2, 1 mM DTT, 50 mM NaCl, 0.1 mg/ml BSA, 25 nM DNA, 10 min 37 C (20 min for RAD51 +/- HELQ), recombinant protein
[3] = tested on: RPA-mRFP1 (human); assay: EMSA (RPA stripping gel); details: stripped by HELQ during annealing to oligo 2, RPA fusion presumed mRFP1; EMSA: 25 mM Tris-HCl pH 8.0, 2 mM ATP, 2 mM MgCl2, 1 mM DTT, 50 mM NaCl, 0.1 mg/ml BSA, 25 nM DNA, 10 min 37 C (20 min for RAD51 +/- HELQ); recombinant protein; protein details: mRFP1; label: 5' FITC; single-stranded DNA
[4] = tested on: HELQ + RPA-mRFP1; assay: pull-down; details: bait oligo bridging to Cy3-dT79, 82 nM RPA, fusion not stated; recombinant protein; label: 3' biotin; single-stranded DNA
[5] = tested on: HELQ(K365M) + RPA-mRFP1; assay: pull-down; details: bait oligo bridging to Cy3-dT79, RPA fusion not stated; recombinant protein; label: 3' biotin; single-stranded DNA
[6] = 2 mM ATP, 2 mM Mg2+, no BRC4, label: 5' FITC on strand 1
[7] = with GST-BRC4 (P7), which prevents RAD51 DNA binding, label: 5' FITC on strand 1

Sequence: AGCTACCATGCCTGCACGAATTAAGCAATTCGTAATCATGGTCATAGCT (double strand) [dsDNA (oligo 1 + oligo 2)]
- binding result ([1]; label: 5' FITC on strand 1): binds
- binding result ([2]; not removed by added HELQ, label: 5' FITC on strand 1): binds

Sequence: AGCTACCATGCCTGCACGAATTAAGCAATTCGTAATCATGGTCATAGCT / AATTCGTGCAGGCATGGTAGCT [3' overhang (oligo 1 + oligo 4)]
- binding result [2, 6]: binds
- binding result [2, 7]: binds more weakly

Sequence: AGCTACCATGCCTGCACGAATTAAGCAATTCGTAATCATGGTCATAGCT / AGCTATGACCATGATTACGAATTGCTTGGAATCCTGACGAACTGTAG [Y structure (oligo 1 + oligo 6)]
- binding result [2, 6]: binds
- binding result [2, 7]: binds more weakly

Sequence: AGCTACCATGCCTGCACGAATTAAGCAATTCGTAATCATGGTCATAGCT [ssDNA (oligo 1)]
- binding result ([1]; label: 5' FITC, single-stranded DNA): binds
- binding result ([2]; not removed by added HELQ, label: 5' FITC, single-stranded DNA): binds
- binding result [3]: binds

Sequence: TTTTTTTTTTTTTTTTTTTTTTTTTTTTTTTTTTTTTTTTTTT [B-dT43]
- binding result [4]: binds
- binding result [5]: binds

For at least one entry, the source does not settle the construct or the ends of the probe. For some assays here: Weaker means in comparison with the reference protein, sequence or condition of that experiment. At least one verdict rests on a figure or table, not on a statement of the authors. For some assays here: Protein sequences can lack the tags named with them.
